Like-named read-outs stand apart in the source and are kept apart here.
What was measured:
Assay in all cases: cells
[1] = test system: HUEVEC; conditions: 48 h, read-out: IC-50, MTT Assay
[2] = test system: NIH3T3; conditions: Mus musculus, NIH3T3, 48 h, read-out: IC-50, RT-CES
[3] = test system: HUEVEC; conditions: 48 h, read-out: IC-50, RT-CES
[4] = test system: HT1080; conditions: Homo sapiens, HT-1080, 48 h, read-out: IC-50, RT-CES

- IC50 [3]: 7.5 µM
- IC50 [4]: 2.4 µM
Structure (SMILES): CC/C(=C(\c1ccccc1)c1ccc(OCCN(C)C)cc1)c1ccccc1 [Tamoxifen]
- IC50 [1]: 8 µM
- IC50 [2]: 16 µM

Source: US7468255B2, “Method for assaying for natural killer, cytotoxic T-lymphocyte and neutrophil-mediated killing of target cells using real-time microelectronic cell sensing technology” (ACEA Biosciences, priority 2002, dated 2008)
